Experimental data as given in US20080063623A1 (INTEVERT INTERNATIONAL B V, published 2008).
These are yes or no findings as the source states them, for the method shown. Some results given as binding are weak or reduced against the parent protein; the word gives no strength.

Columns and labels:
[1] = molecular target: T1, chicken IL-12 p35 subunit (ChIL-12 p35) (chicken); assay: co-transfection of COS-7 cells, non-denaturing Western blot of supernatants
T1 sequence: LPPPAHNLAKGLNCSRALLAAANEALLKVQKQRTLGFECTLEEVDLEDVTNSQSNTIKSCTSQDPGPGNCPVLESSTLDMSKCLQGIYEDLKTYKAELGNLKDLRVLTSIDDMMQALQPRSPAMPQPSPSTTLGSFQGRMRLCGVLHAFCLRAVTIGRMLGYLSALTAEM

[2] = molecular target: T1, chicken IL-12 p35 subunit (ChIL-12 p35) (chicken); assay: co-transfection of COS-7 cells; bioactivity of supernatants on chicken spleen cells

B1: chicken IL-12 p40 subunit (ChIL-12 p40) (ligand)
chain: QWKLRENVYVIESEWNDETPAKKVKLTCDTSDEALPVYWKKGTELKGTGKTLTTEVKEFPDAGNYTCLSAKTHEIISYSFFLITKVDSNGQMIRSILKSYKEPSKTFLKCEAKNYSGIFTCSWMTENESPSVKFTIRSLKGSQGDVTCSSPVARTDKSVTEYTAQCQKENYCPFAEEHQPTEMFLEVIDEVEYENYTSSFFIRDIIKPDPPQCQYASTNGTVTWTYPKTWSTPKSYFPLTFRVKVESTKKYKSKVYDADEQSIQIPKTGPKDKISVQARDRYYNSSWSEWSTLCR
notes: also called chicken p40; clone pND89
For B1, the binding [1] was “binds” and the binding [2] was “binds”.
